Test results: PubChem BioAssay AID1794845 (National Center for Advancing Translational Sciences (NCATS), 2023)
Among all 6,900 compounds or so, fewer than 10 were called active. Calls follow the shape of the dose curve; as a rule, active = well fitted curve in the direction sought with a large enough effect; inconclusive = small, poorly fitted or top-dose-only effect, or another doubt; inactive = no such curve, though single readings can be large or run the other way. The list shows a part of the results.

Amino acid sequences for entries named in this document (tags omitted). A change or cut given only in a name is not applied to a line headed by its entry.
UniProt C7C422: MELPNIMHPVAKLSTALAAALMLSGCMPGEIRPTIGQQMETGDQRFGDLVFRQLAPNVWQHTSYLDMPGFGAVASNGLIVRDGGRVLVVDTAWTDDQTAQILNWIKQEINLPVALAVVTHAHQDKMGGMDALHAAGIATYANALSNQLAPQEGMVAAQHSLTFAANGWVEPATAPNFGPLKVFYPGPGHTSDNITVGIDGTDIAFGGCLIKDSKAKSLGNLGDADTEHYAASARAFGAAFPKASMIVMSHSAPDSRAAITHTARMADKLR

molecular target: Metallo-beta-lactamase type 2 (Klebsiella pneumoniae) (UniProt C7C422); test: qHTS to identify inhibitors of the New Delhi Metallo-beta-lactamase (NDM): primary screen against the NCATS Gemini Collection; conditions: NDM-1 enzyme, meropenem hydrolysis, absorbance 300 nm; at 38.4 µM (top of the series) unless noted; also: % of control where 0% means no effect
In short: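 NDM-1 at 2 nM final in 50 mM HEPES pH 7.0, 1 uM ZnSO4, 0.01% Tween20, preincubated >30 min with compound. Meropenem 50 uM final added; absorbance at 300 nm after 30 min.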

Activity % (negative = inhibition), inactive:
O=C(NCc1cccnc1)C1CN(S(=O)(=O)c2ccccc2)CC12CCCCC2 (stereo unspecified) 55.9%
COCCOCc1nc(C2CCNCC2)no1 11.5%
N#Cc1ccc(CN2C[C@@H](CO)[C@H](NC(=O)c3ccccc3)C2)cc1 -1.44%
Cc1ccc(CN2CCC(CNC(=O)NC(C)C)C2)cc1C (stereo unspecified) -15.1%
O=S(=O)(NCC1CN(CC2CC2)CC12CCCCC2)c1cccs1 (stereo unspecified) -3.18%
CNC(=O)c1cc(C2CC2)nc2onc(C3CCCN3C(=O)NC(C)c3ccccc3)c12 (stereo unspecified) 13%
COc1ccc(NC2CCCN(C(=O)c3cn(CCCN)nn3)C2)cc1 (stereo unspecified) 4.13%
COc1cccc(-c2cc(C(=O)NCc3c(C)cc(C)[nH]c3=O)c3c(c2)N(C(C)C)CCO3)c1OC 10.7%
O=C(c1ccccc1Cl)N1CCc2c(nc3cc(-c4ccccc4)[nH]n3c2=O)C1 6.91%
CCN(Cc1noc(C2CCC2)n1)C(=O)CC1C(=O)NCCN1CC(C)C (stereo unspecified) 0.368%
Cc1cccc(CN2CCN3C(=O)N(Cc4ccc(F)cc4)C[C@H]3C2)n1 0.107% [at 57.5 µM]
O=C1Cc2c(-c3ccccc3OCc3ccccc3)n[nH]c2CN1Cc1ccccn1 9.35% [at 57.5 µM]
Cc1ccc([S+](=O)([O-])N2CCCC(N3C(=O)c4c(c(C)nn4-c4ccccc4)C3C)C2)cc1 (stereo unspecified) -1.4%
COCCN1CCCC2(CCN(C(=O)c3ccc(Cl)s3)C2)C1=O (stereo unspecified) 2.27%
O=C(Cc1ccsc1)N1CCC2(CC1)N=C(c1cccc(Br)c1)NO2 8.23%
CCCc1ccc(CN2CCC(c3nnc(Cn4ccnc4)n3C3CC3)CC2)o1 0.81%
COc1ccc(CNC(=O)CCC2CCCN(C(=O)CCN3CCCCO3)C2)c(OC)c1 (stereo unspecified) 7.37%
COCCN1C(=O)N(C)C(=O)C12CCN(Cc1cc(F)ccc1F)C2 (stereo unspecified) 8.1%
O=C(O)[C@H]1C[C@@H](C(=O)NCc2cccnc2)CN(Cc2ccccn2)C1 43.1%
O=C(Cc1cccc(Cl)c1)N1CCC(C(=O)N2CCC(c3ccccc3)CC2)CC1 6.18%
COCc1noc([C@@H]2CC(F)(F)CN2C(=O)c2cnc(C)cn2)n1 -1.71%
COc1ccc(-c2nn(-c3ccccc3C)cc2CN2CCCN(C)CC2)cc1F -1.44%
CNC(=O)[C@@H](C1CC1)N1CCC[C@H]1C(=O)N1CCOCC1 -0.619% [at 57.5 µM]
CNC(=O)C(C)(C)N1CCC[C@H]1C(=O)NCc1ccccc1 15.7% [at 57.5 µM]
CC1=C[C@@H](CNC(=O)c2cnccn2)[C@H](C(C)C)C[C@H]1CC(=O)O 7.3% [at 57.5 µM]
C[C@@H](NC(=O)[C@@H]1C[C@@H](NS(=O)(=O)c2cccs2)CCN1C(=O)c1ccco1)C(N)=O 19%
Cc1nn2c(N3CCC(O)C3)cc(-c3ccccc3)nc2c1C (stereo unspecified) -5.78%
O=C(c1ccc(C(F)(F)F)cc1)N1CCC2(CC1)COc1ccccc1NC2=O 1.41%
CSCC(=O)N[C@@H]1CN(Cc2cccnc2)C[C@H]1CN(C)C -2.17%
c1ccc(-c2cc(CC3(NCC4CC4)COC3)no2)nc1 26.6% [at 77.1 µM]
Cc1nc(CC(=O)NC(C)c2cnn(-c3ccccc3)c2C)cs1 (stereo unspecified) 13.3%
COCc1nc(C2CCN(C(=O)NCC(C)C)C2)no1 (stereo unspecified) 14.6%
CCOc1ccccc1NC(=O)C1CCN(c2cnc3nccnc3c2)CC1 35.2%
CCn1ccnc1CN(C)c1cc(C2CC(N)C2)nc(COC)n1 (stereo unspecified) 0.701%
COc1cccc(C(=O)N2CCN(c3ccnc4ccnn34)CC2)c1 19% [at 57.5 µM]
COCc1cc(NCCCNc2cccnc2)ncn1 14.6%
O=[S+]([O-])(c1ccncc1)c1nnn2c1nc(NCc1ccncc1)c1ccccc12 6.76%
O=C(NCc1cccnc1)c1nc(-c2ccc(Cl)cc2)c2ccccn12 54.9%
CC(=O)N1CC2(CCCCN2CC2CC2)Cc2ccccc21 (stereo unspecified) -5.57%
Cc1nnc2n1CCC(N(C)C(=O)CCc1ccccc1)CC2 (stereo unspecified) 7.55%
COc1cc2c(cc1NC(C)=O)C(c1ccc(Oc3ccccc3)nc1)CC(=O)N2 (stereo unspecified) -0.151%
CC1(COc2cccnc2)COc2ccc(C(=O)NCc3cccs3)cc2N1 (stereo unspecified) 12% [at 57.5 µM]
Cc1cn2nnc(C(=O)N3CCC(C(=O)Nc4cccc(F)c4)CC3)c2c(=O)[nH]1 -2.5%
CCc1nnc([C@@H]2CC(F)(F)CN2C(=O)CCn2cccn2)o1 0.634%
Cc1ccccc1OC1(C(=O)O)CCN(c2ncccc2C(N)=O)CC1 23.5%
COc1ccc(CN2CCc3oc(C)c(C(=O)NC(C)Cn4ccc(C)n4)c3C2)cc1 (stereo unspecified) 3.8%
Oc1ccccc1-c1cc(C2=CCOCC2)c2cncn2c1 21.6% [at 77.1 µM]
O=C(CNC(=O)c1ccccc1)NCc1nnc2ccc(-c3ccccc3)nn12 -0.0817%
O=S(=O)(NCCc1noc(-c2ccccc2)n1)c1ccc2c(c1)OCCO2 1.19%
Cc1ccc(-c2nccc(N3CCC(O)C3)n2)c(C)c1 (stereo unspecified) 8.92%
O=C(COc1ccc(-c2nnc3n2CCCC3)cc1)N1CCN(c2ccc(F)cc2)CC1 -6.71%
Cc1nn(Cc2ccccc2)c(C)c1[C@@H]1C=C[C@@H](NC(=O)c2cccs2)C1 2.42% [at 57.5 µM]
Cn1c(CN2CCC(O)CC2)nnc1C1CCCN(Cc2ccccn2)C1 (stereo unspecified) 136%
CCn1cc(S(=O)(=O)N2CCC(Cc3nncn3C)C2)cn1 (stereo unspecified) -0.892%
COCCN1CC(CO)C2(CCN(Cc3cccc(OC)n3)CC2)C1 (stereo unspecified) -0.517%
N#CC1CCN(C(=O)C2CCN(C(=O)c3ccc(-c4cncnc4)cc3)CC2)CC1 -3.71%

An excerpt from above in order of formula weight, falling:
Activity % (negative = inhibition), inactive:
O=C(COc1ccc(-c2nnc3n2CCCC3)cc1)N1CCN(c2ccc(F)cc2)CC1 -6.71%
O=C(NCc1cccnc1)C1CN(S(=O)(=O)c2ccccc2)CC12CCCCC2 (stereo unspecified) 55.9%
O=C(c1ccccc1Cl)N1CCc2c(nc3cc(-c4ccccc4)[nH]n3c2=O)C1 6.91%
COc1cc2c(cc1NC(C)=O)C(c1ccc(Oc3ccccc3)nc1)CC(=O)N2 (stereo unspecified) -0.151%
CC1(COc2cccnc2)COc2ccc(C(=O)NCc3cccs3)cc2N1 (stereo unspecified) 12% [at 57.5 µM]
Cn1c(CN2CCC(O)CC2)nnc1C1CCCN(Cc2ccccn2)C1 (stereo unspecified) 136%
Cc1ccccc1OC1(C(=O)O)CCN(c2ncccc2C(N)=O)CC1 23.5%
O=C(O)[C@H]1C[C@@H](C(=O)NCc2cccnc2)CN(Cc2ccccn2)C1 43.1%
COCCN1CC(CO)C2(CCN(Cc3cccc(OC)n3)CC2)C1 (stereo unspecified) -0.517%
COCc1nc(C2CCN(C(=O)NCC(C)C)C2)no1 (stereo unspecified) 14.6%
